In US20220403023A1:
Results are given in words; binding and its absence hold for the method and conditions named.

Assays:
Assay in all cases: ELISA, protein coated at 1 µg/mL
4-1B8.his = target: 4-1B8.his
CD147.his = target: CD147.his
CD22.his = target: CD22.his
CD3.his = target: CD3.his
CD40.his = target: CD40.his
CTLA4.his = target: CTLA4.his
FGFR.his = target: FGFR.his
Factor Eight = target: Factor Eight
OX40.his = target: OX40.his
VEGF.his = target: VEGF.his
VEGFR2.his = target: VEGFR2.his

Measured: binding

B1: W3455-4.9.9-uIgG4.SPL (antibody, V domains shown)
VH: EVQLLESGGGLVQPGGSLRLSCAASGFTFSNFAMSWVRQAPGKGLEWVSTISASGGRTFYADSVKGRITISRDNSKNTLFLQMNGLRAEDTAVYYCAKEGSFGEGVDPWGQGTLVTVSS
VL: SYEMTQPPSVSVSPGQTARITCSGDALPKKYAYWYQQKSGQAPVLVIYEDNKRPSGIPERFSGSSSGTMATLTISGAQVEDEADYYCYSTDISGNHWVFGGGTELTVLG
no binding (tested: 10 ug/ml): all assays above
